Results deposited as PubChem BioAssay AID504764 (Drosophila RNAi Screening Center, 2011)
The deposit covers about 22,000 reagents; shown is a random part of those that have a named target and a result. Of all reagents, 403 (1.9%) are marked active. 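Unnormalised raw counts per well; ratio z-scores behind the hit calls and whether each hit raises or lowers signal are not deposited.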 Entries without a mark were called inactive. The numbers tell different reagents against one gene apart. Not stated in the record: the amount of reagent.

Purpose: 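Knock-downs that raise or lower a Notch target reporter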 (primary screen)
System: Drosophila Kc167 cells
Reagents: long dsRNA against Drosophila genes
Timing: about 5 days (4 days dsRNA, then 24 h after transfection)
Challenge: transfection of constitutively active membrane-tethered Notch lacking the extracellular domain, read 24 h later
Measurement: 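Firefly luciferase from an E(spl)m3 reporter with active Notch, plus control-promoter and uninduced reporter wells for normalisation; unnormalised counts, duplicate wells a and b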
Scale: induced reporter light, run 1, well a and induced reporter light, run 1, well b: higher = more light from the Notch target reporter with active Notch; control promoter light, run 1, well a and control promoter light, run 1, well b: higher = more light from the viral control promoter (cell number, transfection, viability); uninduced reporter light, run 1, well a: higher = more light from the Notch target reporter without active Notch
Call rule: 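Hit if the duplicate-averaged log2 ratio of induced to control-promoter light gives a plate-wise z beyond ±2, or induced to uninduced beyond ±1.8; weak-control or discordant-duplicate wells dropped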
Calls: active = modifier hit (raised or lowered Notch signal); inactive = not a hit

no.	gene knocked down	reagent	induced reporter light, run 1, well a	induced reporter light, run 1, well b	control promoter light, run 1, well a	control promoter light, run 1, well b	uninduced reporter light, run 1, well a
1	CG8475 (GeneID 34114)	1	1.13e5	1.59e5	1.33e5	1.59e5	13665
2	CG9109 (GeneID 33844)	1	63145	79635	64400	78005	6125
3	GCS1 (GeneID 32073)	1	1.65e5	1.64e5	2.60e5	2.03e5	11850
4	CG31650 (GeneID 326150)	1	22540	30980	20680	22605	1765
5	zfh1 (GeneID 43650)	1	51720	61745	64640	61445	5035
6	zfh1 (GeneID 43650)	2	71385	80175	43145	46075	7420
7	Pfas (GeneID 33847)	1	82405	68495	76455	75580	5240
8	Spn42Dd (GeneID 49808)	1	2.25e5	2.00e5	2.53e5	2.14e5	19915
9	CG8701 (GeneID 35812)	1	1.75e5	2.11e5	2.00e5	1.76e5	16125
10	CG9452 (GeneID 40119)	1	1.56e5	1.13e5	85070	65330	10400
11	Vps11 (GeneID 317987)	1	2.59e5	1.95e5	2.41e5	2.64e5	17695
12	Tasp1 (GeneID 39757)	1	1.10e5	1.18e5	78980	1.01e5	10350

Entries above whose target name begins with Z or z:
gene knocked down	reagent	induced reporter light, run 1, well a	induced reporter light, run 1, well b	control promoter light, run 1, well a	control promoter light, run 1, well b	uninduced reporter light, run 1, well a
zfh1 (GeneID 43650)	1	51720	61745	64640	61445	5035
zfh1 (GeneID 43650)	2	71385	80175	43145	46075	7420

Additional reagents:
no.	gene knocked down	reagent	induced reporter light, run 1, well a	induced reporter light, run 1, well b	control promoter light, run 1, well a	control promoter light, run 1, well b	uninduced reporter light, run 1, well a
13	CG12865 (retired record) (GeneID 36633)	1	99955	96460	1.13e5	1.07e5	9370
14	Plp (GeneID 3772382)	1	2.32e5	1.66e5	3.57e5	2.28e5	11785
15	Plp (GeneID 3772382)	2	1.65e5	2.09e5	2.60e5	1.93e5	7620
16	Plp (GeneID 3772382)	3	1.13e5	1.08e5	55635	87915	10690
17	IntS1 (GeneID 37840)	1	1.83e5 (active)	1.42e5	83080	75715	24195
18	Tes (GeneID 36965)	1	1.13e5	1.07e5	98010	78360	9430
19	Topors (GeneID 37188)	1	1.17e5	93195	1.49e5	1.80e5	9425
20	CG14300 (GeneID 3346166)	1	1.95e5	1.80e5	1.61e5	1.56e5	12265
